Data reported in paper PMC3539393.
No constants are given. Whether binding was seen depends on the method and setting. In cells and extracts the contact can be indirect. Where a sequence is shown, tags or fusion partners need not be part of it.

By UniProt entry, the sequences of proteins in these tests, tags left out.
UniProt P37238: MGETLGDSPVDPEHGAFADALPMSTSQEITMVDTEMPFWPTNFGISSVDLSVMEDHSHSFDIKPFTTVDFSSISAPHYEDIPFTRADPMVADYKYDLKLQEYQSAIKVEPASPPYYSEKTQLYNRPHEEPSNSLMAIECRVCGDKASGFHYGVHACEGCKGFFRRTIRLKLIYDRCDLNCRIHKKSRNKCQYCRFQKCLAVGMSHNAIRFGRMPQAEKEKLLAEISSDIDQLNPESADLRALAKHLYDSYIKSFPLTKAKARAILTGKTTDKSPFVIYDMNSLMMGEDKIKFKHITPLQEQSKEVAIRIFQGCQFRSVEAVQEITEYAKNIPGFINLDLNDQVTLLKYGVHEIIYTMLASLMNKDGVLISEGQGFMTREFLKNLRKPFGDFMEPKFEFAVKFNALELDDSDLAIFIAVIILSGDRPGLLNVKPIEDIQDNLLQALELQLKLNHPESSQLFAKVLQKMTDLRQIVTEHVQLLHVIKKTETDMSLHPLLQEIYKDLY

Molecular target: FLAG tagged PPARγ (UniProt P37238)
Assay: co-IP; 500 μg whole-cell extracts of 293T cells co-transfected in pairs; IP with FLAG or HA antibodies at 4°C overnight, 0.3 M NaCl and 0.2% NP-40, protein A/G beads; washes 0.15 M NaCl and 0.1% NP-40; Western blot with FLAG and HA antibodies; without rosiglitazone

B1: HA tagged TBP (protein, UniProt P29037 1-316)
chain: MDQNNSLPPYAQGLASPQGAMTPGIPIFSPMMPYGTGLTPQPIQNTNSLSILEEQQRQQQQQQQQQQQQQAVATAAASVQQSTSQQPTQGASGQTPQLFHSQTLTTAPLPGTTPLYPSPMTPMTPITPATPASESSGIVPQLQNIVSTVNLGCKLDLKTIALRARNAEYNPKRFAAVIMRIREPRTTALIFSSGKMVCTGAKSEEQSRLAARKYARVVQKLGFPAKFLDFKIQNMVGSCDVKFPIRLEGLVLTHQQFSSYEPELFPGLIYRMIKPRIVLLIFVSGKVVLTGAKVRAEIYEAFENIYPILKGFRKTT
binding: no binding
